According to the supplement of paper PMC11546906:
The other results are listed elsewhere or left out. Single values are uncertain here, since repeats match poorly.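 Screen of FDA-approved drugs, each combined with colistin at one-eighth of its MIC, against a multidrug-resistant mcr-1-positive clinical E. coli isolate; growth read as OD600 after 24 h. Bacteria without drug were the growth control and plain broth the blank. A combination counted as active when OD600 fell below 0.2.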

test system: Escherichia coli 42 (mcr-1-positive clinical isolate); assay: OD600 after 24 h growth with compound plus colistin (absorbance units (OD600)); higher = more bacterial growth (less inhibition); settings: first compound 25 µM; colistin concentration 0.5 ug/mL; incubation time 24 h; 37 °C

OD600, inactive:
C[C@@H](O[C@H]1OCCN(Cc2n[nH]c(=O)[nH]2)[C@H]1c1ccc(F)cc1)c1cc(C(F)(F)F)cc(C(F)(F)F)c1 [Aprepitant] + CCC(C)CCCC(=O)N[C@@H](CCN)C(=O)N[C@H](C(=O)N[C@@H](CCN)C(=O)N[C@H]1CCNC(=O)[C@H]([C@@H](C)O)NC(=O)[C@H](CCN)NC(=O)[C@H](CCN)NC(=O)[C@H](CC(C)C)NC(=O)[C@@H](CC(C)C)NC(=O)[C@H](CCN)NC1=O)[C@@H](C)O [colistin] 1.1
COc1ccc2cc(CCC(C)=O)ccc2c1 [Nabumetone] + CCC(C)CCCC(=O)N[C@@H](CCN)C(=O)N[C@H](C(=O)N[C@@H](CCN)C(=O)N[C@H]1CCNC(=O)[C@H]([C@@H](C)O)NC(=O)[C@H](CCN)NC(=O)[C@H](CCN)NC(=O)[C@H](CC(C)C)NC(=O)[C@@H](CC(C)C)NC(=O)[C@H](CCN)NC1=O)[C@@H](C)O [colistin] 1.05
CN(C)CCc1c[nH]c2ccc(C[C@H]3COC(=O)N3)cc12 [Zolmitriptan] + CCC(C)CCCC(=O)N[C@@H](CCN)C(=O)N[C@H](C(=O)N[C@@H](CCN)C(=O)N[C@H]1CCNC(=O)[C@H]([C@@H](C)O)NC(=O)[C@H](CCN)NC(=O)[C@H](CCN)NC(=O)[C@H](CC(C)C)NC(=O)[C@@H](CC(C)C)NC(=O)[C@H](CCN)NC1=O)[C@@H](C)O [colistin] 1.13
FC(F)(F)c1ccc(CNc2ccc(Cc3c[nH]c4ncc(Cl)cc34)cn2)cn1 [Pexidartinib] + CCC(C)CCCC(=O)N[C@@H](CCN)C(=O)N[C@H](C(=O)N[C@@H](CCN)C(=O)N[C@H]1CCNC(=O)[C@H]([C@@H](C)O)NC(=O)[C@H](CCN)NC(=O)[C@H](CCN)NC(=O)[C@H](CC(C)C)NC(=O)[C@@H](CC(C)C)NC(=O)[C@H](CCN)NC1=O)[C@@H](C)O [colistin] 0.977
CCCCCCCCCCC[C@@H](C[C@@H]1OC(=O)[C@H]1CCCCCC)OC(=O)[C@H](CC(C)C)NC=O [Orlistat] + CCC(C)CCCC(=O)N[C@@H](CCN)C(=O)N[C@H](C(=O)N[C@@H](CCN)C(=O)N[C@H]1CCNC(=O)[C@H]([C@@H](C)O)NC(=O)[C@H](CCN)NC(=O)[C@H](CCN)NC(=O)[C@H](CC(C)C)NC(=O)[C@@H](CC(C)C)NC(=O)[C@H](CCN)NC1=O)[C@@H](C)O [colistin] 1.15
CC(C)C[C@H](NC(=O)CNC(=O)c1cc(Cl)ccc1Cl)B1OC(=O)CC(CC(=O)O)(C(=O)O)O1 (some centres undefined) + CCC(C)CCCC(=O)N[C@@H](CCN)C(=O)N[C@H](C(=O)N[C@@H](CCN)C(=O)N[C@H]1CCNC(=O)[C@H]([C@@H](C)O)NC(=O)[C@H](CCN)NC(=O)[C@H](CCN)NC(=O)[C@H](CC(C)C)NC(=O)[C@@H](CC(C)C)NC(=O)[C@H](CCN)NC1=O)[C@@H](C)O [colistin] 0.964
COC(=O)C1=C(C)NC(C)=C(C(=O)OC)C1c1ccccc1[N+](=O)[O-] [Nifedipine] + CCC(C)CCCC(=O)N[C@@H](CCN)C(=O)N[C@H](C(=O)N[C@@H](CCN)C(=O)N[C@H]1CCNC(=O)[C@H]([C@@H](C)O)NC(=O)[C@H](CCN)NC(=O)[C@H](CCN)NC(=O)[C@H](CC(C)C)NC(=O)[C@@H](CC(C)C)NC(=O)[C@H](CCN)NC1=O)[C@@H](C)O [colistin] 0.971
CC1(C)NC(=O)N(c2ccc([N+](=O)[O-])c(C(F)(F)F)c2)C1=O [Nilutamide] + CCC(C)CCCC(=O)N[C@@H](CCN)C(=O)N[C@H](C(=O)N[C@@H](CCN)C(=O)N[C@H]1CCNC(=O)[C@H]([C@@H](C)O)NC(=O)[C@H](CCN)NC(=O)[C@H](CCN)NC(=O)[C@H](CC(C)C)NC(=O)[C@@H](CC(C)C)NC(=O)[C@H](CCN)NC1=O)[C@@H](C)O [colistin] 1.11
Cc1cc(Nc2ncnc3ccc(NC4=NC(C)(C)CO4)cc23)ccc1Oc1ccn2ncnc2c1 [Tucatinib] + CCC(C)CCCC(=O)N[C@@H](CCN)C(=O)N[C@H](C(=O)N[C@@H](CCN)C(=O)N[C@H]1CCNC(=O)[C@H]([C@@H](C)O)NC(=O)[C@H](CCN)NC(=O)[C@H](CCN)NC(=O)[C@H](CC(C)C)NC(=O)[C@@H](CC(C)C)NC(=O)[C@H](CCN)NC1=O)[C@@H](C)O [colistin] 0.995
